Measured values reported in paper doi:10.1101/199034 (bioRxiv, 2017).
No constants are given. Whether binding was seen depends on the method and setting. A result given as binding can be weak or reduced; the word gives no strength.

Amino acid sequences for entries named in this document (tags omitted). A change or cut given only in a name is not applied to a line headed by its entry.
UniProt Q14654: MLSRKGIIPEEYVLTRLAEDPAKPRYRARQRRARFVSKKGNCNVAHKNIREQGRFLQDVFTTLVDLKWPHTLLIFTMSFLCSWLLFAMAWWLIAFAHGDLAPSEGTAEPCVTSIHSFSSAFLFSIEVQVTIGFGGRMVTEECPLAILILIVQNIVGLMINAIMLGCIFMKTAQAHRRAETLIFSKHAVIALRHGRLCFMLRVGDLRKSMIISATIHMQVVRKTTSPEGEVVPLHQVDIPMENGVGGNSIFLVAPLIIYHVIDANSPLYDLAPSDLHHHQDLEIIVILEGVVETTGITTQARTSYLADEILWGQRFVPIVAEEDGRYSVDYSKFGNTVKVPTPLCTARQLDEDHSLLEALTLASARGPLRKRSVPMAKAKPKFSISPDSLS
UniProt Q09428: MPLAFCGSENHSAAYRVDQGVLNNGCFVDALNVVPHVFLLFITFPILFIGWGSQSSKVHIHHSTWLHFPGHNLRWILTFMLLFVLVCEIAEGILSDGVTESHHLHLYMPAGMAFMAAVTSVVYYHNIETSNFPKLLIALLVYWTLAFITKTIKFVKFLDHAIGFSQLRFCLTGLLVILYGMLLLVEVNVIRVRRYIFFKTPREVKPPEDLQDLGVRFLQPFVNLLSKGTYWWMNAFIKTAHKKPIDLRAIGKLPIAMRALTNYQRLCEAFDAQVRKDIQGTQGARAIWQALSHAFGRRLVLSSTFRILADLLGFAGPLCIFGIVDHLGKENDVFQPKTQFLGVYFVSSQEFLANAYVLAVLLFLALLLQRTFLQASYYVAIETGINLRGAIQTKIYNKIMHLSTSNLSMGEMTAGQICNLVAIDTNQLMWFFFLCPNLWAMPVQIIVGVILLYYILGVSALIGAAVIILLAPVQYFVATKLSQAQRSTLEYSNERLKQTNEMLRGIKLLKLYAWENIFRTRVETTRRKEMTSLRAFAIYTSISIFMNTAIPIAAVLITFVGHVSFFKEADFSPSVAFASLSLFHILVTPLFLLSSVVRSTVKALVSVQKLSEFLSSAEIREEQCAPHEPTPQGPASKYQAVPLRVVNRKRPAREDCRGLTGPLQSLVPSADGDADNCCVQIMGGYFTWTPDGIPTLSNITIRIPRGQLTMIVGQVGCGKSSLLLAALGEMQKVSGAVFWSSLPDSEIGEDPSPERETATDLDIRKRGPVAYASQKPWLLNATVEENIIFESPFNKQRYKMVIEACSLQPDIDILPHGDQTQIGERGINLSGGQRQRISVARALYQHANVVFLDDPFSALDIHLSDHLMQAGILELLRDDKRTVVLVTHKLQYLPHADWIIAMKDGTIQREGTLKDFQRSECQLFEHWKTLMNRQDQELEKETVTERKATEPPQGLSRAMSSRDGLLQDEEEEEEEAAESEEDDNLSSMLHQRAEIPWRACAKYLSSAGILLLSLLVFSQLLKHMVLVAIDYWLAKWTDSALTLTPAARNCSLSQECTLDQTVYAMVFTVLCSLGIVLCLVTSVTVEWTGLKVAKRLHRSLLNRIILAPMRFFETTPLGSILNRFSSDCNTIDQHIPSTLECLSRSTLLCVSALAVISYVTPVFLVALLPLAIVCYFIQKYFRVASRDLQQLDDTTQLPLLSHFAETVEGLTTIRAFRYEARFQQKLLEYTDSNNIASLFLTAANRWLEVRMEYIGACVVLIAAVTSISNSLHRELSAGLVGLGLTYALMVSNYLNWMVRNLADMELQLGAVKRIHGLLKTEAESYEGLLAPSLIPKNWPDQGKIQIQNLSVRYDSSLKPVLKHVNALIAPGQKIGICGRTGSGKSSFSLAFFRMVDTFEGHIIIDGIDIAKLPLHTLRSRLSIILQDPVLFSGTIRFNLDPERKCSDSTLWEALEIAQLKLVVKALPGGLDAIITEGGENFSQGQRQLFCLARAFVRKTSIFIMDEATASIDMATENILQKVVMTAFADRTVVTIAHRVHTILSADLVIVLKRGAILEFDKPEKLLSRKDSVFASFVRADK

Target: human Kir6.2 (human) (UniProt Q14654)
Experiment: cryo-EM structure

binding: binds
Substance: human SUR1 (sulphonylurea receptor 1) (from UniProt Q09428)
